ChEMBL document CHEMBL4425091, “Bafilomycins and Odoriferous Sesquiterpenoids from Streptomyces albolongus Isolated from Elephas maximus Feces” (J Nat Prod, 2016)
In brackets after ≈: the same amount, converted by molar mass.

Key:
Staphylococcus aureus = assay: Antibacterial activity against Staphylococcus aureus ATCC 25923 after 24 hrs by MTT based microbroth dilution assay; assay type: functional; details: ATCC 25923, 24 h
Procedure, shortened: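 Two-fold broth microdilution MIC in LB medium (pH 7.0). Compounds dissolved in DMSO, serially diluted to eight levels (11.0−0.086 mg/mL), then each diluted 10-fold in medium (1.1−0.0086 mg/mL). 10 μL of this added to 100 μL of bacteria at 1 × 10^6 cfu/mL. Incubated 24 h at 28 °C. MTT added for 4 h, wells emptied, DMSO added, absorbance read at 570 nm.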

Escherichia coli = assay: microbe, parasite or virus in culture; details: ATCC 25922, 24 h

In the case of O=C(O)c1cn(C2CC2)c2cc(N3CCNCC3)c(F)cc2c1=O [CIPROFLOXACIN], the MIC (Staphylococcus aureus) is reported as 0.13 µg/mL (≈ 0.392 µM) and the MIC (Escherichia coli) is reported as 0.13 µg/mL (≈ 0.392 µM).
